In paper PMC9345867 one finds binding data, which are given here for 10 substances.

Chains of the proteins cited; added tags and fusions are not shown. Residues count along the entry.
UniProt P19474: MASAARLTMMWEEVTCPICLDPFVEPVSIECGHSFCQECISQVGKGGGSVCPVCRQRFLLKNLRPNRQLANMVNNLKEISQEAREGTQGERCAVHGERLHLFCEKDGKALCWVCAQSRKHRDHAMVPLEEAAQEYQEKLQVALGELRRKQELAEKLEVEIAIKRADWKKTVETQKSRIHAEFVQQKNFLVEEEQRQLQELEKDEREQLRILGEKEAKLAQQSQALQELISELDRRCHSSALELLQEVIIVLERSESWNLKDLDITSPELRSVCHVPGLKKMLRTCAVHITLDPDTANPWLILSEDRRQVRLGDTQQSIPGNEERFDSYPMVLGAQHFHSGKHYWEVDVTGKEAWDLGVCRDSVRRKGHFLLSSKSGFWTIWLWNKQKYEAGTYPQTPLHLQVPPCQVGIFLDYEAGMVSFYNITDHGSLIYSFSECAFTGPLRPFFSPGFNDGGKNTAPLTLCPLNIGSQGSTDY
UniProt O14744: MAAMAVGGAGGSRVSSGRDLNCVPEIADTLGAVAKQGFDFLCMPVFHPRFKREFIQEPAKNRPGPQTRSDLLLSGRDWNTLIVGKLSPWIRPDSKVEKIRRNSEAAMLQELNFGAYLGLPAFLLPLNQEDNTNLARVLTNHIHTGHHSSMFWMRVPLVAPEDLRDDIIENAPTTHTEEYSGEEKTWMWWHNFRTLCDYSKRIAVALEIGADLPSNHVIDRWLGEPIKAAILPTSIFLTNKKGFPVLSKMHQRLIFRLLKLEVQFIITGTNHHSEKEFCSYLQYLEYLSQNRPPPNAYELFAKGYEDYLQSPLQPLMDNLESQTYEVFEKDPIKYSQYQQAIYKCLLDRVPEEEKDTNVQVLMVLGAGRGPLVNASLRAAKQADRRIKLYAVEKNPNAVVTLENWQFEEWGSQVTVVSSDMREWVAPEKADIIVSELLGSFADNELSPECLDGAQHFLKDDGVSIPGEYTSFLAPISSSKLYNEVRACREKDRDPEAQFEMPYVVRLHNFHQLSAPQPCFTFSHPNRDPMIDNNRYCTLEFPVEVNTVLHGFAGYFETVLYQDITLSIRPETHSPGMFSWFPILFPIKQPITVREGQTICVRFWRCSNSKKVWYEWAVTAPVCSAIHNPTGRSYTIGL
UniProt P17066: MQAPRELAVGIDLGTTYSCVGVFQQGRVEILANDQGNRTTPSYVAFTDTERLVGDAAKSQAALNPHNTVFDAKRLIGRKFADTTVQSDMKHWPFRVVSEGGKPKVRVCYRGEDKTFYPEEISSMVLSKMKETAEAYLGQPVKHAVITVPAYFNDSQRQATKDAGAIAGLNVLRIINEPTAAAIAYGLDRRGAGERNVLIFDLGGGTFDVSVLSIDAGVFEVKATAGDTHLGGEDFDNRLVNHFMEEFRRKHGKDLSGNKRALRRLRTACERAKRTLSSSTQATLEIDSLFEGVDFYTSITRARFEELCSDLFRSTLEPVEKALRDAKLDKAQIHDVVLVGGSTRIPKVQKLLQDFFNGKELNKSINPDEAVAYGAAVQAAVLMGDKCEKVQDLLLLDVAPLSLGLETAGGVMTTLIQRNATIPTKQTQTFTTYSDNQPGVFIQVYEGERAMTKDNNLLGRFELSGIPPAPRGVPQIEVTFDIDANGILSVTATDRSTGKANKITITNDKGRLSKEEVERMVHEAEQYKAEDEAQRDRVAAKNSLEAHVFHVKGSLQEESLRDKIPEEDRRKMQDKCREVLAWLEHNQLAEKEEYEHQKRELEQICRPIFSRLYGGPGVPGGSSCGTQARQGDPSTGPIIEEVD
UniProt P25705, residues 44-553: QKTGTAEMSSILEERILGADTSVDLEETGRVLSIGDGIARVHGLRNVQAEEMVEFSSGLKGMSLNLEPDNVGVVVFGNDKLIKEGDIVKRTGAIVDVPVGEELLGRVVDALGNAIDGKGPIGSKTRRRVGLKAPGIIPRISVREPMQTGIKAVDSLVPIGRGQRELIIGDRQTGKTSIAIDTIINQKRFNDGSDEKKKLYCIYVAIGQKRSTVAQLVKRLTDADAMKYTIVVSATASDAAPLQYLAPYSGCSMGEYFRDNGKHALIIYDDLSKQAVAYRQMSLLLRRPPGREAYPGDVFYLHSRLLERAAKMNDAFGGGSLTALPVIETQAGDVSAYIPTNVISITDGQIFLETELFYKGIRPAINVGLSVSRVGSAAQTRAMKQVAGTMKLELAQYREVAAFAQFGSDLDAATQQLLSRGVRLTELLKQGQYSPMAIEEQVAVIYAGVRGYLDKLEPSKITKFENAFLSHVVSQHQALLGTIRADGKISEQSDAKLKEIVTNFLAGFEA
UniProt P11142: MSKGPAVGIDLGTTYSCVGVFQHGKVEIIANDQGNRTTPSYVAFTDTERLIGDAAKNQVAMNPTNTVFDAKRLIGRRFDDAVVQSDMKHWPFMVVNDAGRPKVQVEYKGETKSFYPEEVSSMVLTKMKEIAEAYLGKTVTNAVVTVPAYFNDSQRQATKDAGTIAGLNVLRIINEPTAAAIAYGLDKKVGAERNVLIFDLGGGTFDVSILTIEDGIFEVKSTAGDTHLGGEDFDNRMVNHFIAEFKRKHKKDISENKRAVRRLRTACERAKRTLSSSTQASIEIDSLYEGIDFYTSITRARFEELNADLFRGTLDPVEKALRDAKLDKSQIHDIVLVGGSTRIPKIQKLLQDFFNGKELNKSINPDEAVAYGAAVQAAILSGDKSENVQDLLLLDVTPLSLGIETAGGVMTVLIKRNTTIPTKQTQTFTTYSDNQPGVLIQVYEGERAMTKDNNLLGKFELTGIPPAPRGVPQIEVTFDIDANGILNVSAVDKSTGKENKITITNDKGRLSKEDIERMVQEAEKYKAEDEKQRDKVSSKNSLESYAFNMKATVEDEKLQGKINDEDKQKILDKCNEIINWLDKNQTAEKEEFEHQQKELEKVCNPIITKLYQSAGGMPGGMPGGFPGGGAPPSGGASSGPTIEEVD
UniProt P68371: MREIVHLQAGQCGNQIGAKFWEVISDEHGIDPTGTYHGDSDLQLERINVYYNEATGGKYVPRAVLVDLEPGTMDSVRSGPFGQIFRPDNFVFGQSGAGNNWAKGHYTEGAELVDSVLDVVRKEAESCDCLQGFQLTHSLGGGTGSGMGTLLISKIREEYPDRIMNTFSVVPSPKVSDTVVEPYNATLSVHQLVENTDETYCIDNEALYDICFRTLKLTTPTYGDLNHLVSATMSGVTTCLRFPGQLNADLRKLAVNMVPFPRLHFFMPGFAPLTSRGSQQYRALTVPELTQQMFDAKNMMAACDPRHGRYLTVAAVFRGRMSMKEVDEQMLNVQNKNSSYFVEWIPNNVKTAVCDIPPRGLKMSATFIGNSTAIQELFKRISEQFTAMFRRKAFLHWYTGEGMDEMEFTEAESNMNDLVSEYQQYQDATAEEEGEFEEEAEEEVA
UniProt P34931: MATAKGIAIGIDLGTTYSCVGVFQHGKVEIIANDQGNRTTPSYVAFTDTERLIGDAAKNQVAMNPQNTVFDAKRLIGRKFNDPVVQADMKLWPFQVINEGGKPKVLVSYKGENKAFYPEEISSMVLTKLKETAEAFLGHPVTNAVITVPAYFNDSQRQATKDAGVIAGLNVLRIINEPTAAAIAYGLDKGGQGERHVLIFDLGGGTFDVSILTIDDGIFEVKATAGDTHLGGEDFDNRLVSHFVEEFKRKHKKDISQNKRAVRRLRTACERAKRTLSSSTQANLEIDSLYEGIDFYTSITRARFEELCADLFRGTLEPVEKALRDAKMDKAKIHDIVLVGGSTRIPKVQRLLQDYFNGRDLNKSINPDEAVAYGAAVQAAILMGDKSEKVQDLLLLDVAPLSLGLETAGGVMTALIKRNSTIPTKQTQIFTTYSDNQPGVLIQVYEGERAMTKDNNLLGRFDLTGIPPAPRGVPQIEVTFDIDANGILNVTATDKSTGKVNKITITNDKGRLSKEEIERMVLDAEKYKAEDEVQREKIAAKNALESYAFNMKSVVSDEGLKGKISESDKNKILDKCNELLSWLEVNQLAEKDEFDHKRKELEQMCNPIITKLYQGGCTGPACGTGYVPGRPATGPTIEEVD
UniProt P11021, residues 19-654: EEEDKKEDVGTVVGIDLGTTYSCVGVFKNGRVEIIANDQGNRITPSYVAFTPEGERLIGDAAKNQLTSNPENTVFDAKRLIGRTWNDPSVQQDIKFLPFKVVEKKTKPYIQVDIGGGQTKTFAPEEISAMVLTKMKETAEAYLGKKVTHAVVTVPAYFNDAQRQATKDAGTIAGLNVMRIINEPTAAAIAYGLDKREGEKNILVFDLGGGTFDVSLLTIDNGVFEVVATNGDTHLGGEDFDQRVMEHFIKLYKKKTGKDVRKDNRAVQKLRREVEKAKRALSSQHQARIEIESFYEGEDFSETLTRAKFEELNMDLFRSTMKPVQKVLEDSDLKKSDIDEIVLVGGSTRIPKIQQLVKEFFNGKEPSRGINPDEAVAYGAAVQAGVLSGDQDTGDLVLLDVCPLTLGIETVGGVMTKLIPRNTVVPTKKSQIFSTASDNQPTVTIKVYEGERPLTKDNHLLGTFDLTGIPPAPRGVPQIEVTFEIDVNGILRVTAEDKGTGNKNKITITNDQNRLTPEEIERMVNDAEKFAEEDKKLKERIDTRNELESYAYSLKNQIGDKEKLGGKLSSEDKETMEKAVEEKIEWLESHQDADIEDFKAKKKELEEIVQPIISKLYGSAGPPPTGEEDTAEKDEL
UniProt P07437: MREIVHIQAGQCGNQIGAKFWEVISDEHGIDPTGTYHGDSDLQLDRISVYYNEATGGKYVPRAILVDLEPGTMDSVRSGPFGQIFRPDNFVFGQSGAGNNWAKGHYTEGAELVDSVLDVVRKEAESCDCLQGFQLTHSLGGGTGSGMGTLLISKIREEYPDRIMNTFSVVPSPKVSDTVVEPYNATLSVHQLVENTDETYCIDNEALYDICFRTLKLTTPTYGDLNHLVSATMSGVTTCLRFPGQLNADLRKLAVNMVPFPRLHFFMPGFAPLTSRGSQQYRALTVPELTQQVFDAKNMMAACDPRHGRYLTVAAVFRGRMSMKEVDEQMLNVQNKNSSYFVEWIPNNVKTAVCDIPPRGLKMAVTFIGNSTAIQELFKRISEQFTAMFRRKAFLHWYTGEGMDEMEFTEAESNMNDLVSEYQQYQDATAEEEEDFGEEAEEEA

The target in this assay is T1, C-terminal 3× FLAG-HA-tagged CT47 (human) (UniProt Q5JQC4).
T1 sequence: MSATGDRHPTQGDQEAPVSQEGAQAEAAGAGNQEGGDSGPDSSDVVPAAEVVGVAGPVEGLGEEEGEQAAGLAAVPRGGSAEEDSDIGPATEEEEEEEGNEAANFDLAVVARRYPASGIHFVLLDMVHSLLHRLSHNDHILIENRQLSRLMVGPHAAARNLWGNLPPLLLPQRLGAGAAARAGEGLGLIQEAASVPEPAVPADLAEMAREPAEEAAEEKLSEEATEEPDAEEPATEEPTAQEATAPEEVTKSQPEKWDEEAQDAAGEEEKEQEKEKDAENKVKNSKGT
As to the kind of experiment: affinity purification with mass spectrometry; CT47-3×FLAG.HA expressed in HEK293T; FLAG-immunoprecipitation followed by HA-immunoprecipitation (FLAG HA Tandem Affinity Purification Kit) from the cell lysate; eluate run on a gel, silver stained, LC-MS/MS; control: pCMV-tag2b plasmid.

These are yes or no findings as the source states them, for the method shown. Binding seen in cells or lysates may run through a third protein. A yes stands for co-enrichment or nearness to the bait. Other partners may have been found. Sequences can lack the tags named with a protein.

Take TRIM21 (from UniProt P19474 1-475): the binding result is “binds”.
On to “PRMT5 (from UniProt O14744 1-637) (enzyme)”, for which the binding result is listed as “binds”.
In the case of HSPA6 (from UniProt P17066 1-643), the binding result was “binds”.
With ATP5A1 (from UniProt P25705 44-553), the binding result was “binds”.
With HSPA8 (from UniProt P11142 1-646), the binding result is reported as “binds”.
As for TUBB4B (from UniProt P68371 1-445), the entry is “binds”; as for HSP9A (human (endogenous in HEK293T)), “binds”; as for HSPA1L (from UniProt P34931 1-641), “binds”.
For the substance HSPA5 (from UniProt P11021 19-654), the binding result is “binds”.
With TUBB (from UniProt P07437 1-444) the entry was “binds”.
